# PubChem BioAssay AID493014 (National Center for Advancing Translational Sciences (NCATS), 2011)
# Hit rate of the full screen: of about 340,000 compounds, about 170 (0.05%) were called active. This list was built around the results that the source calls inconclusive (neither active nor inactive); the mix of calls is not that of the screen. Calls come from the whole dose curve; as a rule, active = well fitted inhibition curve with a large enough effect in the signal ratio, with a control signal flat (not every such curve was filed as active); inconclusive = small, poorly fitted or top-dose-only effect, or effect the other way, or a change in a side signal; inactive = flat fitted curve, though single readings scatter; the % refers to the signal ratio. Potencies of inconclusive entries are doubtful fits and often do not repeat.
# Assay: qHTS Assay to Find Inhibitors of Chronic Active B-Cell Receptor Signaling;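 for activity change, negative = inhibition: plate controls were basal doxycycline-induced cells for no effect and cells given 10 µM MG132 for full effect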
# Conditions: ABC-DLBCL IkBa-CBG/CBR reporter, luminescence ratio (green luciferase fused to IkBa over red control in TMD8 lymphoma cells), 4 h; activity change, negative = inhibition: at 46.1 µM (top of the series)
# How it was run: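 TMD8 human ABC-DLBCL cells with doxycycline-inducible IκBα–green luciferase fusion and unfused red luciferase, in 0.5% FBS medium; compounds up to 46 uM, 4 h at 37C. Green/red luminescence ratio, filter-overlap corrected, fitted to concentration-response curves.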
# Potency is the fitted concentration of half-maximal effect.
Compound,"activity change, negative = inhibition",Potency
COc1cccc(/C=N/NC(=O)CCCc2ccc(OC)c(C)c2)c1,inconclusive: -4.41%,
CCOC(=O)c1sc(=NC(=O)CCSc2ccccc2)n(C)c1C,inconclusive: 12.3%,
O=C(CN1CCOCC1)NCCC12CC3CC(CC(C3)C1)C2,inconclusive: 1.79%,
CC(=O)CC(=O)Nc1ccc(Cl)cn1,,"inconclusive: 28.2 µM [falling, single point]"
COc1ccc(OC)c(NC(=O)CSc2nncc3ccccc23)c1,inconclusive: -4.32%,
Cc1ccc(C2CC(c3ccccc3)=NN2c2ccccc2)o1 (configuration not stated),inconclusive: 8.01%,
Cc1ccc(SCCC(=O)Nc2ccccc2C(=O)NC(C)C)cc1,,"inconclusive: 25.9 µM [falling, single point]"
CCOC(=O)CCC(=O)NNC(=O)c1ccc(NC(=O)c2ccccc2)cc1,,"inconclusive: 35.5 µM [falling, single point]"
O=C(NC1CCCc2ccccc21)c1ccc(Br)cc1 (configuration not stated),,"inconclusive: 29.1 µM [falling, single point]"
N/C(=N\OC(=O)c1ccc(Br)o1)c1ccccn1,,"inconclusive: 5.62 µM [falling, single point]"
C/C(=N/NC(=O)c1ccc(Br)s1)c1cccnc1,,"inconclusive: 20 µM [falling, partial curve, poor fit]"
CC(C)(c1ccccc1)c1ccc(OCC(O)CNC2CCN(Cc3ccccc3)CC2)cc1 (configuration not stated),,"inconclusive: 35.5 µM [falling, single point]"
COc1ccc(/C=N/NC(=O)c2cccnc2)cc1,,"inconclusive: 7.08 µM [falling, partial curve, poor fit]"
Clc1ccc(OCc2nnc(-c3ccccc3Br)o2)c(Cl)c1,inconclusive: 9.94%,
O=C(NNc1nc2ccccc2s1)Nc1ccccc1,inconclusive: -27.8%,
CCn1c(=O)cc(SCC(=O)NCC2CCCO2)c2ccccc21 (configuration not stated),inconclusive: -2.28%,
COC(=O)Cn1c(=NC(=O)c2nc3ccccc3s2)sc2cc(S(C)(=O)=O)ccc21,inconclusive: 6.21%,
Cc1nc2c3ccccc3nc(SCC(=O)c3ccc(Cl)cc3)n2n1,inactive,
Cc1nn(Cc2cccc(C(=O)NN)c2)c(C)c1Cl,inconclusive: -17.8%,
CC1(C)CC2CC(C)(CN2C(=S)NC(=O)c2ccccc2Cl)C1 (configuration not stated),inactive,
CC(NCc1cc(Br)ccc1OCC(=O)NCc1ccccc1)c1ccccc1 (configuration not stated),inconclusive: -0.512%,
C/C(=N\NC(=O)c1ccc(O)cc1)c1cccc(NC(=O)c2ccccc2C)c1,,"inconclusive: 5.62 µM [rising, partial curve]"
Cc1cnc(C(=O)OCC(=O)NC23CC4CC(CC(C4)C2)C3)cn1,inactive,
CCCOc1ccccc1-n1sc2c(c1=S)-c1cc(OC)cc3c1N(C(=O)C3=O)C2(C)C,,"inconclusive: 2.06 µM [rising, partial curve, poor fit]"
Cc1cccn2c(=O)c3cc(C(=O)NCCc4ccccc4)c(=N)n(Cc4ccco4)c3nc12,inactive,
Cc1cccc(OCCCC(=O)Nc2ccc(S(=O)(=O)N3CCCC3)cc2)c1,,"inconclusive: 29.1 µM [falling, single point]"

# A draw from above in order of formula weight, descending.
Compound,"activity change, negative = inhibition",Potency
CCCOc1ccccc1-n1sc2c(c1=S)-c1cc(OC)cc3c1N(C(=O)C3=O)C2(C)C,,"inconclusive: 2.06 µM [rising, partial curve, poor fit]"
COC(=O)Cn1c(=NC(=O)c2nc3ccccc3s2)sc2cc(S(C)(=O)=O)ccc21,inconclusive: 6.21%,
COc1ccc(OC)c(NC(=O)CSc2nncc3ccccc23)c1,inconclusive: -4.32%,
CC1(C)CC2CC(C)(CN2C(=S)NC(=O)c2ccccc2Cl)C1 (configuration not stated),inactive,
Cc1ccc(C2CC(c3ccccc3)=NN2c2ccccc2)o1 (configuration not stated),inconclusive: 8.01%,

# (continued)

Compound,"activity change, negative = inhibition",Potency
COc1cccc(CNS(=O)(=O)c2ccc3c(c2)CC(C)N3C(=O)C2CC2)c1 (configuration not stated),inconclusive: -0.155%,
C/C(=N\Nc1nc(Nc2ccccc2)nc(N2CCOCC2)n1)c1cccs1,,"inconclusive: 14.1 µM [falling, partial curve]"
Cc1ccc2c(-c3csc(N)n3)c[nH]c2c1,inconclusive: -18.2%,
CCOc1ccc(C2=C/C(=C/c3cccnc3)C(=O)O2)cc1,,"inconclusive: 29.1 µM [rising, partial curve, poor fit]"
COc1cc(/C=C(\C#N)C(=O)Nc2ccccc2C(=O)O)cc(Cl)c1OC,,"inconclusive: 31.6 µM [rising, single point]"
CC1(O)CC(c2ccc(Cl)cc2)=NN1C(=O)c1ccc([N+](=O)[O-])cc1 (configuration not stated),inconclusive: 3.74%,
O=[N+]([O-])c1ccc(O)c(/C=N/Nc2ccccc2Cl)c1,,"inconclusive: 17.8 µM [falling, partial curve]"
Cn1ccnc1SCC(=O)c1ccc([N+](=O)[O-])cc1,inconclusive: 8.33%,
N#Cc1ccc(CN2C(=O)NC3(CCCCCC3)C2=O)cc1,inactive,
Cc1ccc(NC(=O)c2oc3ccccc3c2C)c([N+](=O)[O-])c1,inconclusive: 18.4%,
C=CCn1c(SCC(=O)NCc2ccco2)nc2ccccc2c1=O,inconclusive: 7.29%,
CCN(CC)CCn1c2ccccc2c2cnc(N)c(C#N)c21,inconclusive: -6.46%,
COc1ccc(CCNc2ccc(C)cc2)cc1,inconclusive: 6%,
O=C(C1=NOC(CNc2ncc(C(F)(F)F)cc2Cl)C1)N1CCOCC1 (configuration not stated),inactive,
COc1ccc(OC)c(S(=O)(=O)NC2CC2)c1,inconclusive: 1.49%,
O=C(CC1C(=O)NCCN1C(=O)Nc1ccc(Cl)cc1)Nc1ccc(F)cc1 (configuration not stated),inactive,
Cc1ccc(-c2nn(C)c(=O)c3ccccc23)cc1CNC(=O)CN1CCOCC1,inconclusive: -26.6%,
c1ccc(-c2cc3n(c2)CCc2ccccc2-3)cc1,inconclusive: 12%,
CNC(=O)C(C)NS(=O)(=O)c1ccc(F)cc1 (configuration not stated),inconclusive: 8.3%,
O/N=C/c1ccnc(SCc2ccccc2)n1,inconclusive: 7.2%,
CSc1cccc(NC(=O)N2CCc3ccc(NC(=O)c4ccccn4)cc3C2)c1,,"inconclusive: 25.1 µM [falling, single point]"
CCOc1ccccc1NC(=O)CSc1nnc(CNC(=O)c2cccs2)o1,inconclusive: -28.3%,
CC(C)C(=O)NNC(=O)CSc1nnc(-c2ccccc2)c(-c2ccccc2)n1,inconclusive: -2.93%,
O=C(Nc1cc(S(=O)(=O)N2CCOCC2)ccc1N1CCCC1)c1ccc(Cl)cc1,inactive,
CCCCCCC(=O)Nc1nc(C)c(-c2csc(Nc3cc(Cl)ccc3C)n2)s1,inconclusive: -2.32%,
Cc1cc(C)n2nc(Cc3ccccc3)nc2n1,inactive,
